# Results from one PubChem assay

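Luminescence from an EWS-FLI1 target-promoter (NR0B1) reporter, set against a CMV-promoter reporter, two days after silencing single genes in TC32 Ewing sarcoma cells. Each siRNA was applied at 20 nM. A z-score of the log NR0B1-over-CMV signal, less the median of siRNAs with the same seed; more negative means a stronger specific loss of the NR0B1 reporter.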

This is part of the screen; most of the strongest results are not listed here. Sequences are the guide (antisense) strand, without overhang.

| Sequence | gene | seed-corrected z-score |
|---|---|---|
| `UUCUUCACCAGAUCAAACU` | C1QTNF5 | 0.2407 |
| `UCAGUGCUGAUGCAAGUUC` | ANXA2 | 0.41 |
| `UUCCGUGCAAAACAGUUCU` | COMMD3 | -0.03309 |
| `UAUGUUGACAUCGCUUAUC` | SYCP1 | -0.01306 |
| `UGAGGAACAUUUUGCAGGC` | VAV2 | 0.496 |
| `UUGUCUUUGGUUAGGAUCA` | MAGEA9 | -0.6416 |
| `AUCCUUGUCCGAGUUGUUC` | LMNB2 | -0.5102 |
| `UAGCUCGUAGUAGCAAUGC` | TOMM70A | 0.2569 |
| `AUAGGUGUCCGUGCAAUAC` | CDCA3 | -0.4921 |
| `UCCUUCCUCAGUCAGAAUG` | LILRA5 | -0.02415 |
| `UAUACGUAGAUUUAGGUCC` | GOLGA5 | 0.4939 |
| `UUCUUUCACAUCUGUCGCC` | LDLR | 0.8842 |
| `AAAUUAGGUACCGCAGUCC` | PLCL2 | 0.002795 |
| `AAAUGGGCGACGUGCUUCU` | C10orf91 | 0.6276 |
| `AACGGUGCAUGUUUUCACG` | PRNP | 0.3367 |
| `UGAGCUAUGACCAUAUCGC` | LINC00477 | 0.7946 |
| `UACAGCUUGAGAUAAAGGG` | TMEM246 | -0.2876 |
| `UCUUACAACAUCUAAGUGG` | LARP1B | 0.03916 |
| `UCCAAUAAUUGAUCGAUGC` | IL7 | 0.6681 |
| `UAUGAGAUCAGACUGAGAG` | STRA8 | -0.08722 |
| `AAUGGACUCAGAGCUCGUG` | NAV3 | 0.2706 |
| `AUUGGGUUGAUUUAGUUUG` | SLC50A1 | 0.9435 |
| `UAACAUUGCAGAACGUAUC` | EPYC | 0.00349 |
| `UACAGGCUGUGAUACAUGU` | RPL19 | -1.709 |
| `UUUCGGAUAUUGACCAGGC` | RNF157 | 0.1312 |
| `UUAGGACUUGGUAGUUAGC` | SLC8A1 | 0.1928 |
| `UAUCUGGUAAGUCCAUCCC` | ZNF304 | -1.047 |
| `UUACGAAGUGGGUAAUUCU` | BAHD1 | -0.6902 |
| `UCAUCCUCCAGUGAAAACC` | LOC149351 | -0.5747 |
| `UCCCGAAUGACUCCUGUGG` | TMEM222 | -0.4018 |
| `UCAGAGAACUCUAUUACCC` | TJAP1 | -0.3891 |
| `UCAAGACCGAGGAAAGUCC` | CXorf36 | 0.1328 |
| `UCUAUCCUCACGACAGGUG` | JMJD4 | 1.233 |
| `UUUGCACUCAAAGCAACUG` | FIGF | 0.172 |
| `AGCAUAAAAAGUGUCAACC` | HACD4 | 0.2225 |
| `UUUUCGAUGAUUGUGGUAG` | FABP3 | 0.1525 |
| `UGAGUUUACAGACCAGUCC` | EML1 | 1.29 |
| `AAGGUAAUGACUUUCGUGG` | GTPBP1 | -0.2891 |
| `UACCGAUCCAAAGCUAUAG` | HTR1F | 0.1341 |
| `UUCGAUGAAAAGGGCAUCC` | PPID | -0.8585 |
| `UAUGACGACGGAUUGAAGC` | FAM126B | 0.1972 |
| `UUAAGCACUGGGUGGAUCU` | CRB3 | 2.705 |
| `UUUCUUCUAACUUGUGGUC` | ARPP19 | 0.5371 |
| `AAACAUUCCAGAUUGAUUA` | BMP8B | 1.328 |
| `UUGACCACUAUACAUAUGG` | TMEM163 | 0.8197 |
| `UCCUGAUAAACAGCUGCCC` | MAP9 | 0.2639 |
| `UAUGUGGUCCAUAAAGGCG` | NR2F2 | 1.057 |
| `AGAGUUUCCUGUACAGAGC` | IL2RA | -1.691 |
| `UUCCAUAUUGGAAAUAUUG` | FAM187B | 1.428 |
| `UGAGCAGCAAGGUAGAUUC` | G6PC | 0.5849 |
| `UACCCAAUCAGGUCCACUG` | NXPE3 | 0.5672 |
| `AACAUCUUCAUCAUAUUCG` | JADE1 | 1.517 |
| `UUCGAUCACAGUGAAAUCC` | DPYD | -0.5498 |
| `UUUGCAAUUGGUCCUAAGG` | OR14I1 | 0.06659 |
| `UAUUGUAAACGGUUCCAUC` | RPE65 | -0.5746 |
| `UAUCUGUUCAGCAGUGAUU` | SSR2 | -0.6173 |
| `UGGUCAGGAACCGAAAGGC` | CDC34 | 0.1152 |
| `UAUUAAUCCUGGAAGAAUU` | LOC643855 | 0.01497 |
| `UGUUAUGCAGUCAUAAUCC` | SYCP2 | -0.817 |
| `UCUACAGCUAUAAGGAUAC` | LUZP1 | 0.1361 |
| `UUACCGAAGAACAGAAAGC` | SLC26A8 | 0.5599 |
| `UGUACACCAAGUACUGUCC` | EXOC8 | 0.7105 |
| `UCUGGAUAUAGCAGGAUCU` | MPEG1 | 1.412 |
| `AAGGGAAUGAGGUCUGCUG` | BEST4 | -0.3085 |
| `UAUGUGGUAGGUAUGGUGC` | PPP4R3A | 0.03504 |
| `AACUCGUCAAGAAGUAUUC` | CAMSAP2 | 0.6546 |
| `UCAAUGUACUCUAUUCUCC` | BRK1 | 0.4385 |
| `UGACUAAGAAGAAAUCCGC` | SLC17A3 | 0.3252 |
| `AAAGAGUAACUCCAUAUCC` | MGST1 | 0.22 |
| `AAUCUUCCAACUAUGGAUG` | STRN4 | 0.9768 |
| `AAUACGAUUAUUAAGUCUC` | SUCO | -0.1099 |
| `AAAGUGGUACAGGUCAGCC` | SH3BP1 | 0.3625 |
| `UGAGAUAAUUGGCAGCUGG` | TRIM72 | 0.4593 |
| `UCUCCAUCUGAGGUAGUGC` | TTC31 | -1.24 |
| `AUGGGUACCACGUAGAGCA` | TMEM164 | -0.05142 |
| `AAGUCGAACACUCAGCUGC` | METTL7A | -1.452 |
| `UCCAGGUCCACGUCUUUCU` | DAND5 | -0.2348 |

Some entries from above, unchanged:

| Sequence | gene | seed-corrected z-score |
|---|---|---|
| `UUGACCACUAUACAUAUGG` | TMEM163 | 0.8197 |
| `UAUUAAUCCUGGAAGAAUU` | LOC643855 | 0.01497 |
| `UAUGAGAUCAGACUGAGAG` | STRA8 | -0.08722 |
| `UCCUGAUAAACAGCUGCCC` | MAP9 | 0.2639 |
| `UUCUUCACCAGAUCAAACU` | C1QTNF5 | 0.2407 |
| `UCUCCAUCUGAGGUAGUGC` | TTC31 | -1.24 |
| `AACGGUGCAUGUUUUCACG` | PRNP | 0.3367 |
| `UUUGCAAUUGGUCCUAAGG` | OR14I1 | 0.06659 |

The results are deposited in PubChem (AID1159506; NCATS, 2015).